# Laboratory results taken from patent publication US20100297750.
# The exact form of at least one protein or probe is not confirmed. Where cells or extracts were used, other partners may take part. For part of these data: Weaker means in comparison with the reference protein, sequence or condition of that experiment. Tags and fusion partners may be left off the protein sequences shown.
# Legend:
# Experiment in all cases: pull-down
# [1] = biological target: T1, ZFP36L1 (UniProt Q07352); conditions: protein in a lysate after overexpression, protein details: Myc-tagged, expressed in 293T cells, label: 3' flag peptide
# T1 sequence (looked up, limits assumed): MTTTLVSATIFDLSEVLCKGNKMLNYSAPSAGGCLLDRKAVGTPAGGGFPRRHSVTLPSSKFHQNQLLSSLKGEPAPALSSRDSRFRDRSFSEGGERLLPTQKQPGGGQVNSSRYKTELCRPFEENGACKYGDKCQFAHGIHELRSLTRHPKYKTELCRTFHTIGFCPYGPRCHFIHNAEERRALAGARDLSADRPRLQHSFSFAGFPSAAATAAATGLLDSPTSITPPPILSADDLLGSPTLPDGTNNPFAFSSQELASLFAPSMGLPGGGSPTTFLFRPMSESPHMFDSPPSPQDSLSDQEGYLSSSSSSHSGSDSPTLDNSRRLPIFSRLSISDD
# [2] = biological target: T2, ZFP36L1 (endogenous) (UniProt Q07352); conditions: identified by LC-MS/MS from 293T extract; protein in an extract; label: 3' flag peptide
# T2 sequence (looked up, limits assumed): T1 sequence (looked up, limits assumed)
# [3] = biological target: T3, ZFP36L2 (UniProt P47974); conditions: protein in a lysate after overexpression, protein details: Myc-tagged, expressed in 293T cells, label: 3' flag peptide
# T3 sequence (looked up, limits assumed): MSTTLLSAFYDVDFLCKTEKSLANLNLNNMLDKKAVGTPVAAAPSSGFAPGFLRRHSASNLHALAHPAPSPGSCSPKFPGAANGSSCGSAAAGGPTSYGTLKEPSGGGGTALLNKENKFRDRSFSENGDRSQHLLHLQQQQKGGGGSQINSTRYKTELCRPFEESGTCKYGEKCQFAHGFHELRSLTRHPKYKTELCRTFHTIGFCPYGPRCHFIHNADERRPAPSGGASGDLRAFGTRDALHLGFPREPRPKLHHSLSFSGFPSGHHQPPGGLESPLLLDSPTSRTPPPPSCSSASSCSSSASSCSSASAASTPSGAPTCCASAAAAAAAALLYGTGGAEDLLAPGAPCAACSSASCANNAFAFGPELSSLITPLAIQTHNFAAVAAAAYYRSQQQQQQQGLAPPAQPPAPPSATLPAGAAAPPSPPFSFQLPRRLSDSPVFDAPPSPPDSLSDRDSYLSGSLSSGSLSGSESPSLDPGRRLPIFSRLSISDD
# [4] = biological target: T4, ZFP36L2 (endogenous) (UniProt P47974); conditions: identified by LC-MS/MS from 293T extract; protein in an extract; label: 3' flag peptide
# T4 sequence (looked up, limits assumed): T3 sequence (looked up, limits assumed)
Sequence,"binding result ([1]; anti-flag IP of RNA bait, anti-Myc Western, 4 C, signal lowered by LNA1-3 but not by control LNA4-5)",binding result [2],"binding result ([3]; anti-flag IP of RNA bait, anti-Myc Western, 4 C, signal lowered by LNA1-3 and LNA6-14 but not by control LNA4-5)",binding result [4],binding result ([1]; extremely small signal),binding result ([3]; extremely small signal)
ACAUCUGCCUGGAGUCCCGCCCCUGCCCAGAACCCUUCCUGAGACCUCGCCGGCCUUGUUUUAUUCAAAGACAGAGAAGACCAAAGCAUUGCCUGCCAGAGCUUUGUUUUAUAUAUUUAUUCAUCUGGGAGGCAGAACAGGCUUCGGACAGUGCCCAUGCAAUGGCUUGGGUUGGGAUUUUGGUUUCUUCCUUUCCUGUGAAGGAUAAGAGAAACAGGCCCGGGGGGACCAGGAUGACACCUCCAUUUCUCUCCAGGAAGUUUUGAGUUUCUCUCCACCGUGACACAAUCCUCAAACAUGGAAGAUGAAAGGGCAGGGGAUGUCAGGCCCAGAGAAGCAAGUGGCUUUCAACACACAACAGCAGAUGGCACCAACGGGACCCCCUGGCCCUGCCUCAUCCACCAAUCUCUAAGCCAAACCCCUAAACUCAGGAGUCAACGUGUUUACCUCUUCUAUGCAAGCCUUGCUAGACAGCCAGGUUAGCCUUUGCCCUGUCACCCCCGAAUCAUGACCCACCCAGUGUCUUUCGAGGUGGGUUUGUACCUUCCUUAAGCCAGGAAAGGGAUUCAUGGCGUCGGAAAUGAUCUGGCUGAAUCCGUGGUGGCACCGAGACCAAACUCAUUCACCAAAUGAUGCCACUUCCCAGAGGCAGAGCCUGAGUCACCGGUCACCCUUAAUAUUUAUUAAGUGCCUGAGACACCCGGUUACCUUGGCCGUGAGGACACGUGGCCUGCACCCAGGUGUGGCUGUCAGGACACCAGCCUGGUGCCCAUCCUCCCGACCCCUACCCACUUCCAUUCCCGUGGUCUCCUUGCACUUUCUCAGUUCAGAGUUGUACACUGUGUACAUUUGGCAUUUGUGUUAUUAUUUUGCACUGUUUUCUGUCGUGUGUGUUGGGAUGGGAUCCCA [LDLR 3'UTR (WT) 2677-3585],binds,binds,binds,binds,,
UAGGCGGACUAUGACUUAGUUGCGUUACACCCUUUCUUGACAAAACCUAACUUGCGCAGAAAACAAGAUGAGAUUGGCAUGGCUUUAUUUGUUUUUUUUGUUUUGUUUUGGUUUUUUUUUUUUUUUUGGCUUGACUCAGGAUUUAAAAACUGGAACGGUGAAGGUGACAGCAGUCGGUUGGAGCGAGCAUCCCCCAAAGUUCACAAUGUGGCCGAGGACUUUGAUUGCACAUUGUUGUUUUUUUAAUAGUCAUUCCAAAUAUGAGAUGCAUUGUUACAGGAAGUCCCUUGCCAUCCUAAAAGCCACCCCACUUCUCUCUAAGGAGAAUGGCCCAGUCCUCUCCCAAGUCCACACAGGGGAGGUGAUAGCAUUGCUUUCGUGUAAAUUAUGUAAUGCAAAAUUUUUUUAAUCUUCGCCUUAAUACUUUUUUAUUUUGUUUUAUUUUGAAUGAUGAGCCUUCGUGCCCCCCCUUCCCCCUUUUUGUCCCCCAACUUGAGAUGUAUGAAGGCUUUUGGUCUCCCUGGGAGUGGGUGGAGGCAGCCAGGGCUUACCUGUACACUGACUUGAGACCA [beta-Actin 3'UTR 1199-1770],,,,,binds more weakly,binds more weakly
